The numbers were not newly measured in patent publication US20240173315A1 (OWP Pharmaceuticals, Inc., priority 2022, published 2024), which cites them from elsewhere.

The term Ki denotes a dissociation constant, usually derived from enzyme kinetics or from competition with a known ligand.

In the series the target is T1, α1A receptors (Homo sapiens, UniProt P35348).
T1 sequence (P35348 1-466): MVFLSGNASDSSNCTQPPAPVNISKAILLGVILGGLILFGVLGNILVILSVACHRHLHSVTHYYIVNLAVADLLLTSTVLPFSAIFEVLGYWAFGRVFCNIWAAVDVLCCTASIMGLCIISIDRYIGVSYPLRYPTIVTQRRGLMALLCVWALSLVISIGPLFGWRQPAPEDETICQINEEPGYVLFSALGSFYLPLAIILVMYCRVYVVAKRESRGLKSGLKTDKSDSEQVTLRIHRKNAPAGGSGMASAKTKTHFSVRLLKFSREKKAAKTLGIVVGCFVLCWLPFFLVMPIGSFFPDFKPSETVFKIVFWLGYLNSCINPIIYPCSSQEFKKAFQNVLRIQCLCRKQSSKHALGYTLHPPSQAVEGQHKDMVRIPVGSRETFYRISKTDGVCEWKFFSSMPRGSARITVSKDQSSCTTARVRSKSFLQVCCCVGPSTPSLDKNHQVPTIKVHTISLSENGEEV
Particulars: read-out: Ki, antagonist at α1A.

Molecules are shown by their SMILES.

In the case of `O=c1n(CCCN2CCN(c3cccc(Cl)c3)CC2)nc2ccccn12` [trazodone, 2-{3-[4-(3-chlorophenyl)piperazin-1-yl]propyl}[1,2,4]triazolo[4,3-a]pyridin-3(2H)-one], the Ki was 153 nM.
